According to PMC9896067 (Advanced Science, 2022):

Test: general procedure: Fmoc solid-phase peptide synthesis
Details: whole synthesis

PEPTIDE1{[BP].C.F.F.F.V.L.K.L.A.K.L.A.K.D.E.V.D.A.K.R.G.A.R.S.T.A}$$$$V2.0
final HPLC purity: 96%

Strings that start with PEPTIDE1 are HELM notation: dots part the residues, brackets hold end groups and non-standard residues.
